## Library screen at single concentrations

The chains behind the UniProt entries cited, without tags or fusion partners. Residues count along the entry.
UniProt Q8IDJ8, 1-583: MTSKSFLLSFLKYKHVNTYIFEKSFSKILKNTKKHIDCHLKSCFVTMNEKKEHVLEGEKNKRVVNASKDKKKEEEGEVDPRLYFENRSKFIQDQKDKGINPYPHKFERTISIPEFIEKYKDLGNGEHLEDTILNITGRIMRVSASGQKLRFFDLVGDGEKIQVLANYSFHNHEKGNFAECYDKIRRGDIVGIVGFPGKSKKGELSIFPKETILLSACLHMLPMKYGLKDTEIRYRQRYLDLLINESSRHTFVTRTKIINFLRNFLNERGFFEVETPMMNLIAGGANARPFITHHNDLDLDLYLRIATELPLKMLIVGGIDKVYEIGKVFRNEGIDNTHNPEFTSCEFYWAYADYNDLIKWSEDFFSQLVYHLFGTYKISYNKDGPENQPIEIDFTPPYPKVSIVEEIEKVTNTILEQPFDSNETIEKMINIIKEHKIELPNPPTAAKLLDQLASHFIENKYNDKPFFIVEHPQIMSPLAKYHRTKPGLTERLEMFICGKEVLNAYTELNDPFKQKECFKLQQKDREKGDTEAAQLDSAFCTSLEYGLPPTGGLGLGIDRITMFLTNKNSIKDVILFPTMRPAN
UniProt A4I591, 1-473: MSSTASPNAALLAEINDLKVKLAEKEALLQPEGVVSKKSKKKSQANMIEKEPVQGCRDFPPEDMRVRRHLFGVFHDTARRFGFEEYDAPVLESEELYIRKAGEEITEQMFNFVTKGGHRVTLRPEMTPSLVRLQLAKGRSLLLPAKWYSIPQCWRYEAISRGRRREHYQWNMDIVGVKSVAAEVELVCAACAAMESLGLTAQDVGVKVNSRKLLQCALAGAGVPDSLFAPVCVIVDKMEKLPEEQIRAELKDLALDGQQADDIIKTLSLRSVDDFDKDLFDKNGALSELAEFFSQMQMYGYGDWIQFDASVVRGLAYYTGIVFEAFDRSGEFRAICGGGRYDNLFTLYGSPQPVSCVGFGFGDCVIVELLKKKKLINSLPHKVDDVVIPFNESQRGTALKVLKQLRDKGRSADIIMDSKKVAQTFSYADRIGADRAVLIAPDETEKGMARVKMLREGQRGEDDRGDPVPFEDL

A: 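Whole-parasite assay of Trypanosoma brucei over 72 hours; the read-out is not stated. Concentration: 30 µM. Direction is inferred from retests: higher values go with stronger inhibition. Values scatter widely below zero; nearly all retest evidence comes from the higher of the two concentrations used. About 64,000 compounds were tested under these conditions; 1.5% (about 940) showed 50% or more at least once.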
B: 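Lysine-tRNA ligase, Plasmodium falciparum 3D7 (UniProt Q8IDJ8). Enzyme assay of the cytosolic lysyl-tRNA synthetase in 384-well plates, read by luminescence. Concentration: 30 µM. Direction is inferred from only a few compounds that gave an IC50; most scored high, so higher reads as stronger inhibition. Of about 69,000 compounds tested this way, about 49 (0.071%) reached 50% or more in at least one test.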
C: 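Enzyme assay of histidyl-tRNA synthetase; the read-out is not stated. Target: Histidine-tRNA ligase, Leishmania infantum (UniProt A4I591). Tested at 30 µM. Higher reads as stronger inhibition (inferred: compounds with an IC50 in retests scored well above the rest). The assay is labelled LdHisRS but filed under L. infantum. Size under these conditions: about 69,000 compounds, about 410 of them at 50% or above in at least one test.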
D: 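Assay of Toxoplasma gondii numbers, read through their beta-galactosidase reporter with a colour substrate. Tested at 10 µM. The record gives no direction; the compounds picked for IC50 retests had high values, so higher reads as fewer parasites. Size under these conditions: about 67,000 compounds, about 260 of them at 50% or above in at least one test.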

Each number is a percent effect as filed.
How 0% and 100% were set is not recorded. Most values in the screen are low, and negative values occur.
Compounds were drawn at random from those tested, without regard to their results.

{"compound": "CCS(=O)(=O)N1CCC2(CCCN(Cc3cc(OC)ccc3F)C2)C1", "stereo": "stereo not drawn", "A": 30.04, "B": 7.634, "C": 20.19, "D": -6.514}
{"compound": "CCN(C(=O)c1nc2c(s1)CCCN2c1ccc(C)nn1)C(C)C", "A": -4.922, "B": 1.388, "C": 15.38, "D": -1.357}
{"compound": "Cc1ccc(C(=O)NCCNCC2CNc3ccnn3C2)cc1", "stereo": "stereo not drawn", "A": -56.04, "B": 6.599, "C": 28.77, "D": -2.528}
{"compound": "O=C(NCCc1cccs1)[C@H]1CO[C@H]2CCNC[C@H]2C1", "B": 6.182, "C": 13.53}
{"compound": "Cc1ccc(C(=O)N(C)Cc2c(C)noc2C)c(=O)[nH]1", "A": -10.23, "B": 4.536, "C": 24.66, "D": 6.867}
{"compound": "COc1cccc(CSCC(=O)NCc2cccnc2)c1", "A": 5.213, "B": 9.203, "C": 0, "D": -4.589}
{"compound": "CC(C)c1cc(C(=O)N2CCN(c3ccc(F)c(Cl)c3)CC2)n(C)n1", "A": -3.005, "B": 2.978, "C": 20, "D": 16.25}
{"compound": "Cc1ccc(C(=O)N2CCN(Cc3cccs3)CC2)n1C", "A": -9.577, "B": 1.214, "C": 8.621, "D": 3.63}
{"compound": "Cc1ccccc1NC1CCN(C(=O)CCc2ccco2)CC1", "A": -18.15, "B": 4.732, "C": 12.5, "D": -26.38}
{"compound": "COCc1cn(C2CCN(C(=O)c3ccc(F)c(C)c3)CC2)nn1", "A": 25.55, "B": 0.2885, "C": 9.859, "D": 22.61}
{"compound": "O=C(O)C(F)(F)F.O=C(O)C(F)(F)F.c1cncc(-c2ncnc3c2CCN(Cc2cccs2)CC3)c1", "A": -100, "D": 35.8}
{"compound": "CC(C)n1ccnc1C1CCN(Cc2ccc(Cl)c(F)c2)CC1", "A": 33.49, "B": 2.998, "C": 17.92, "D": 2.741}
{"compound": "CCc1cnc(N2CC3(CCN(S(=O)(=O)C4CC4)C3)C2)nc1", "A": -5.281, "B": 5.103, "C": 14, "D": 4.376}
{"compound": "CO[C@H]1CN(Cc2nc3ccccc3n2C)C[C@@]12CCCO2", "A": 99.68, "B": -1.438, "C": 14.39, "D": 9.466}
{"compound": "O=C(c1ccccc1O)N1CCN(C(=O)C2CCC2)CC1", "A": -1.836, "B": 5.821, "C": 26.58, "D": 1.986}
{"compound": "CCOCc1nc(N2CCOCC2)sc1C(=O)NCc1ccco1", "A": 0.1724, "B": 2.09, "C": 8.219, "D": -0.8984}
{"compound": "CCn1cc(Cl)c(C(=O)Nc2ccc3c(c2)C(C)(C)C(=O)N3C)n1", "A": -46.59, "B": 4.674, "C": 17.5, "D": -21.85}
{"compound": "NCCc1c(-c2ccc(F)cc2)[nH][nH]c1=O", "B": 1.331, "C": 0, "D": -0.5117}
{"compound": "CN(Cc1cn2c(n1)CN(c1ncc(F)cn1)CC2)Cc1ccco1", "B": -0.6554, "C": 18.25}
{"compound": "O=C(c1ccsc1)N1CCc2onc(COc3ccccn3)c2C1", "B": 4.4, "C": 24}
{"compound": "COc1cc(C(=O)NC(CC(=O)O)c2cccs2)cc(OC)c1C", "stereo": "stereo not drawn", "A": -5.974, "B": 2.375, "C": 18.26, "D": -2.636}
{"compound": "Cc1cc(CC(=O)N2CCc3cc(Br)sc3C2)n[nH]1", "A": -43.38, "B": -5.942, "C": 1.429, "D": 3.121}
{"compound": "CC(C(=O)Nc1ccc(N2CCCCC2)nc1)n1cncn1", "stereo": "stereo not drawn", "A": -9.018, "B": 0.5379, "C": 7.143, "D": -9.022}
{"compound": "O=C(O)C(F)(F)F.[H][C@@]12CN(c3cccnc3)CC[C@]1([H])CN(c1nccc(C(F)(F)F)n1)C2", "A": -3.259, "D": -3.643}
{"compound": "CSCC[C@H](NC(C)=O)c1nc(Cc2ccccc2)n[nH]1", "A": -27.04, "B": 1.591, "C": 27.14, "D": -6.492}
{"compound": "COc1cccc(C)c1C(=O)N1CCc2ncnc(NCCO)c2CC1", "A": -12.83, "B": 5.447, "C": 3.101, "D": 5.954}
{"compound": "Cc1ccsc1CN(CCN(C)C)C(=O)c1cc2ccccc2[nH]1", "A": -38.37, "B": 2.115, "C": 1.316, "D": 2.928}
{"compound": "CC(c1ccncc1)N(C)S(C)(=O)=O", "stereo": "stereo not drawn", "B": 4.145, "C": 7.229, "D": -4.689}
{"compound": "COCc1ccccc1CNc1cc(N2CCCC2CO)ncn1", "stereo": "stereo not drawn", "A": 5.307, "B": 2.585, "C": 19.18, "D": 1.271}
{"compound": "O=C(c1ccccc1)N1CCO[C@@H]2CN(c3cnccn3)C[C@@H]2C1", "B": 2.373, "C": 18.8}
{"compound": "O=C1NCCCCC1SCc1coc(-c2ccccc2)n1", "stereo": "stereo not drawn", "A": -52.98, "B": -2.708, "C": 9.859, "D": -6.149}
{"compound": "CN(C)C(=O)C1OC2(CCNCC2)c2ccccc21", "stereo": "stereo not drawn", "B": -4.25, "C": -2.564}
{"compound": "CCOC(=O)N1CCN(c2nc(NC3CC3)c3ccccc3n2)CC1", "B": -0.9282, "C": 25}
{"compound": "CNc1cc(C2CCCN2C(=O)c2ccc3oc(=O)n(C)c3c2)ccn1", "stereo": "stereo not drawn", "A": -22.75, "B": 10.21, "C": 5.714, "D": -11.38}

Once more, the final 4:

* O=C1NCCCCC1SCc1coc(-c2ccccc2)n1 (stereo not drawn) : A: -52.98%; B: -2.708%; C: 9.859%; D: -6.149%
* CN(C)C(=O)C1OC2(CCNCC2)c2ccccc21 (stereo not drawn) : B: -4.25%; C: -2.564%
* CCOC(=O)N1CCN(c2nc(NC3CC3)c3ccccc3n2)CC1 : B: -0.9282%; C: 25%
* CNc1cc(C2CCCN2C(=O)c2ccc3oc(=O)n(C)c3c2)ccn1 (stereo not drawn) : A: -22.75%; B: 10.21%; C: 5.714%; D: -11.38%

From ChEMBL document CHEMBL3988442, “University of Dundee, Small-Polar-MMV Screening Library” (2021).